Measurements published in the supplement of paper PMC6411743.
± gives the standard deviation of the averaged measurements. Only a part is listed here, and it is no random draw. Most entries show no effect beyond the scatter of the controls.

Chains of the proteins cited; added tags and fusions are not shown. Lines headed by an entry give the natural chain unless they say otherwise; changes in a name come on top.
UniProt P05455: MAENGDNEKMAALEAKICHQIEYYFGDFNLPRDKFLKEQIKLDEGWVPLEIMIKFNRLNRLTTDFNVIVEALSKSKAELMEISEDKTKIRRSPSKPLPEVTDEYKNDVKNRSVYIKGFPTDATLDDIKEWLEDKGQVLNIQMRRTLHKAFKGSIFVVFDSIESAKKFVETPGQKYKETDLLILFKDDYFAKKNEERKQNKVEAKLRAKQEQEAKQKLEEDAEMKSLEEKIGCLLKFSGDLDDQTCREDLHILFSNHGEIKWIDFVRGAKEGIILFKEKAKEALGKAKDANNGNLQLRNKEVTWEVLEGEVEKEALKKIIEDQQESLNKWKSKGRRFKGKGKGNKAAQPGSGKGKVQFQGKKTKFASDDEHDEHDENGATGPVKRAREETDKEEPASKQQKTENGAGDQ
UniProt P13073, whole entry: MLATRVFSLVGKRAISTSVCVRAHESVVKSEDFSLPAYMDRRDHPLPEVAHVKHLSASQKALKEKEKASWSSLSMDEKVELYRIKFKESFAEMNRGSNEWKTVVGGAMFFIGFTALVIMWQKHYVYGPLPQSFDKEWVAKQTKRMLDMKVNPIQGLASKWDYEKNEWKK
UniProt O96019, whole entry: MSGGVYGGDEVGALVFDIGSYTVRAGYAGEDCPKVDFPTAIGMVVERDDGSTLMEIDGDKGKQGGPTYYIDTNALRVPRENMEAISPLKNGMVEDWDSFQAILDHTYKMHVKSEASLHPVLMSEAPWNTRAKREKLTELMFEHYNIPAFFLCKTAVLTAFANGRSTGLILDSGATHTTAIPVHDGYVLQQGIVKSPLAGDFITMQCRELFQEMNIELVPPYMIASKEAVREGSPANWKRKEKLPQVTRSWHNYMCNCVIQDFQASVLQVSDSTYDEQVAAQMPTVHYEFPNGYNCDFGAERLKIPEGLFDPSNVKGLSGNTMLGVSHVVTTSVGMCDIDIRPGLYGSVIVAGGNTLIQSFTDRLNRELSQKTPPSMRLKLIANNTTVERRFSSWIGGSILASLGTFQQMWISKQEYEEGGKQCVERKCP
UniProt P11172: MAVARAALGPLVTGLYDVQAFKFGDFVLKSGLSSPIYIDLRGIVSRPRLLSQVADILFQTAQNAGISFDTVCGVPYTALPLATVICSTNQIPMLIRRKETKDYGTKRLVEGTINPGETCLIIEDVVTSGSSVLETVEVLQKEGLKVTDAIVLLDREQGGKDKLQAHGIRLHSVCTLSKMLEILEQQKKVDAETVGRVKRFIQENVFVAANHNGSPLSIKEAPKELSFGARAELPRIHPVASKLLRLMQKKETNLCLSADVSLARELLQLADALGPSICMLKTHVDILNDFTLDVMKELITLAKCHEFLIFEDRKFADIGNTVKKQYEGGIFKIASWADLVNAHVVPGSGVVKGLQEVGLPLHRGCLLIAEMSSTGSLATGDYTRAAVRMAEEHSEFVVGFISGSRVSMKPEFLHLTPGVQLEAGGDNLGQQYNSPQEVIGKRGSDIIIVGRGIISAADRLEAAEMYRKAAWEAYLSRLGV
UniProt P13498: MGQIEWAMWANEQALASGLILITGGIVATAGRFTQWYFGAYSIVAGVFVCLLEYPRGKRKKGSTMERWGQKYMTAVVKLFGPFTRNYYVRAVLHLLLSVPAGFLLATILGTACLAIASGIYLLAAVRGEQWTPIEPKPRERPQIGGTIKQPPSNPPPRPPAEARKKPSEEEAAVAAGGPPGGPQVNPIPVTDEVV
UniProt P14927: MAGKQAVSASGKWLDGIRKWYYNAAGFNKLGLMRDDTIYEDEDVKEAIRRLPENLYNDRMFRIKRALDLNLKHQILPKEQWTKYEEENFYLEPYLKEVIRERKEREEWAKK
UniProt P10412, whole entry: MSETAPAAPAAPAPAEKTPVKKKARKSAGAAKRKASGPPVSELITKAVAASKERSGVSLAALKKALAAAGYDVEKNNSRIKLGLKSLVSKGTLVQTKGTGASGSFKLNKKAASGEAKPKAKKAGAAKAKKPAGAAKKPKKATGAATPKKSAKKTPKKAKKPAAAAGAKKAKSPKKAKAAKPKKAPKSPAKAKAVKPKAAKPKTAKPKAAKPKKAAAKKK
UniProt P06241, whole entry, looked up: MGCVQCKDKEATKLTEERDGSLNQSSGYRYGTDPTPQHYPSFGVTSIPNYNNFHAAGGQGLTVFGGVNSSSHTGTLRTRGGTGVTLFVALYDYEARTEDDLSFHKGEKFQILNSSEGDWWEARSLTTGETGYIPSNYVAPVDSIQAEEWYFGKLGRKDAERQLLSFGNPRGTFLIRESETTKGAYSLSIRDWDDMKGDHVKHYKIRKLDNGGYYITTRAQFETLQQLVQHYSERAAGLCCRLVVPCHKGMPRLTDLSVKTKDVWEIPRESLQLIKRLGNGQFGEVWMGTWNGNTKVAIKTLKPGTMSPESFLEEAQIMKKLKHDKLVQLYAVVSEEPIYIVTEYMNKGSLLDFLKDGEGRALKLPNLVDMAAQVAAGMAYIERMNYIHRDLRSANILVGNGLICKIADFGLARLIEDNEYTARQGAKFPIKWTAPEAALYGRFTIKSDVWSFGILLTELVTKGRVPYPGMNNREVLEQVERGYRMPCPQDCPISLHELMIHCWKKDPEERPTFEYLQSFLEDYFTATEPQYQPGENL
UniProt P06280: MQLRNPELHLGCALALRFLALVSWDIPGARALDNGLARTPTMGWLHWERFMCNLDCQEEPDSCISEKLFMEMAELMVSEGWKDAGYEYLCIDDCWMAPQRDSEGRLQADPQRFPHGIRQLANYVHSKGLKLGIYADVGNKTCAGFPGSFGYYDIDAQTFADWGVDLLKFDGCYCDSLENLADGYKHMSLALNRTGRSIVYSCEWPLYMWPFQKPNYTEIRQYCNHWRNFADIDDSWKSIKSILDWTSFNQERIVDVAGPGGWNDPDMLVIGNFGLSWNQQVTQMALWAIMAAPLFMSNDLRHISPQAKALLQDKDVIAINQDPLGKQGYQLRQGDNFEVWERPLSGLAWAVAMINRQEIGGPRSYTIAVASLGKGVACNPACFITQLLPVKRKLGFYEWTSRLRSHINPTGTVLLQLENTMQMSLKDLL
UniProt P10644, whole entry: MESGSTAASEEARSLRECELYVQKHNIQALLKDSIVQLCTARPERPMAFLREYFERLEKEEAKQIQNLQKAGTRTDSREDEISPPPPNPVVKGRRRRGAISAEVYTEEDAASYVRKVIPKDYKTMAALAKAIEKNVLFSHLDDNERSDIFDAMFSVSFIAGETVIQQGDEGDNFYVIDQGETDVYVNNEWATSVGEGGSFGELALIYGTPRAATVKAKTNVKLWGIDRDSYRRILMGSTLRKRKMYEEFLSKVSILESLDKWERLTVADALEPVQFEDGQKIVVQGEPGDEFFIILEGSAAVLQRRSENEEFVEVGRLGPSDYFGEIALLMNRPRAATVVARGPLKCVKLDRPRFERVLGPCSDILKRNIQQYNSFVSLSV
UniProt P10747, whole entry: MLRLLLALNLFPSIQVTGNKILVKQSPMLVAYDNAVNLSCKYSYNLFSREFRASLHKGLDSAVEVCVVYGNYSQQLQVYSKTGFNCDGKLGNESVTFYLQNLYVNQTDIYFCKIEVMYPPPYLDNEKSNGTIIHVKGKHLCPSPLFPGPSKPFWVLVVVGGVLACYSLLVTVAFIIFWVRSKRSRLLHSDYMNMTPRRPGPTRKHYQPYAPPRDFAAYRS
UniProt P08758: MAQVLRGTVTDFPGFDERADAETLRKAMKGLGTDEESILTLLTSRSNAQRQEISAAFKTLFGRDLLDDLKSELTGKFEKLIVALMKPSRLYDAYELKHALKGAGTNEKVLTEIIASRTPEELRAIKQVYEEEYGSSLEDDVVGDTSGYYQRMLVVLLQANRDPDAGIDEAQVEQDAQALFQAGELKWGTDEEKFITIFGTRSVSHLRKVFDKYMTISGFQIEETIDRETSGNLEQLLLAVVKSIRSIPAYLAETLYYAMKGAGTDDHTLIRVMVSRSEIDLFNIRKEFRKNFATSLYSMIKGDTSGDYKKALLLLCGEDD
UniProt P09471, whole entry, looked up: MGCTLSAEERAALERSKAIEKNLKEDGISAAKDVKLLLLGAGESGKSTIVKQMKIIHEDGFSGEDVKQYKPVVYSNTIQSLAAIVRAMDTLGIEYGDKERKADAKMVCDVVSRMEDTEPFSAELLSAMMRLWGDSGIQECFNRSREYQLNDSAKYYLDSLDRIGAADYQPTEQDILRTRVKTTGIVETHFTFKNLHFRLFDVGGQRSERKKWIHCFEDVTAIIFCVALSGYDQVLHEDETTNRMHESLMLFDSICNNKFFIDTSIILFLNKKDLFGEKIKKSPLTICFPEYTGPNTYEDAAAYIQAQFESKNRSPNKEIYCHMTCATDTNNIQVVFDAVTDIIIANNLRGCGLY
UniProt P06239: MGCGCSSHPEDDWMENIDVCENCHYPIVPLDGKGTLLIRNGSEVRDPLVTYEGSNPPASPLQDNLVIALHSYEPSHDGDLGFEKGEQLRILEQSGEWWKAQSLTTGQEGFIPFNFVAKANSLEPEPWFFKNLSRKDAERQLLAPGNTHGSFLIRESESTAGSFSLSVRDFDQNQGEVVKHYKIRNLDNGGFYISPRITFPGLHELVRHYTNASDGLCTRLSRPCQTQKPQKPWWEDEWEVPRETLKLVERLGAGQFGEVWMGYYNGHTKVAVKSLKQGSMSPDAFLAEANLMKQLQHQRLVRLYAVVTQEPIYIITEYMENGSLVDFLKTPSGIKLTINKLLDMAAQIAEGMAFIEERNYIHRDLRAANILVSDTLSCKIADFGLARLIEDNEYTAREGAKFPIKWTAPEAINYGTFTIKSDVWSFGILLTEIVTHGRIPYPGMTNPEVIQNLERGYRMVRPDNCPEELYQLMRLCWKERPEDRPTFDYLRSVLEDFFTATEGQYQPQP
UniProt P04083: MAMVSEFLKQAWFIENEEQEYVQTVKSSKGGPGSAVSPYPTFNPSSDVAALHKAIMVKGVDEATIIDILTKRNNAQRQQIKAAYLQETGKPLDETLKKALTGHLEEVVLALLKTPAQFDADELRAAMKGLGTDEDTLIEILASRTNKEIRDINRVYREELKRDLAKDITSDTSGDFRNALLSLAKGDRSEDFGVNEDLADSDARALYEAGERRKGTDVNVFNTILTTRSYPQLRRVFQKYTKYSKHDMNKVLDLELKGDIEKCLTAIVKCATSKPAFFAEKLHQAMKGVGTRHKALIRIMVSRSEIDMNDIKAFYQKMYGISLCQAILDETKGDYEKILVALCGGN
UniProt P13796: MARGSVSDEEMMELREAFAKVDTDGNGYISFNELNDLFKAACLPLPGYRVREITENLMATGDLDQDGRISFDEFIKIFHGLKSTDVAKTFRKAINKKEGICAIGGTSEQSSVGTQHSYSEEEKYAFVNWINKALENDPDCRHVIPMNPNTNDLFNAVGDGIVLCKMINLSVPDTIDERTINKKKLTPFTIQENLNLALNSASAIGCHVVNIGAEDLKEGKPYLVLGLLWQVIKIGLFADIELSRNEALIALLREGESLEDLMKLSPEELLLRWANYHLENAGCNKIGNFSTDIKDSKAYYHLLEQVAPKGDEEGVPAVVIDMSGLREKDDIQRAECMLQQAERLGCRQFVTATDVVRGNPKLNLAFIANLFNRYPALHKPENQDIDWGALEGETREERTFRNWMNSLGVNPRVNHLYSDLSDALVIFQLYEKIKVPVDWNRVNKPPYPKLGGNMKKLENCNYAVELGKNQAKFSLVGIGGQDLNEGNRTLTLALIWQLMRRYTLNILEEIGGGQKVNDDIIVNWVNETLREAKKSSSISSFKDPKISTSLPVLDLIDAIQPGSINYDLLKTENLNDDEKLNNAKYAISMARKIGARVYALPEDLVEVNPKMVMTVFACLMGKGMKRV
UniProt P07099: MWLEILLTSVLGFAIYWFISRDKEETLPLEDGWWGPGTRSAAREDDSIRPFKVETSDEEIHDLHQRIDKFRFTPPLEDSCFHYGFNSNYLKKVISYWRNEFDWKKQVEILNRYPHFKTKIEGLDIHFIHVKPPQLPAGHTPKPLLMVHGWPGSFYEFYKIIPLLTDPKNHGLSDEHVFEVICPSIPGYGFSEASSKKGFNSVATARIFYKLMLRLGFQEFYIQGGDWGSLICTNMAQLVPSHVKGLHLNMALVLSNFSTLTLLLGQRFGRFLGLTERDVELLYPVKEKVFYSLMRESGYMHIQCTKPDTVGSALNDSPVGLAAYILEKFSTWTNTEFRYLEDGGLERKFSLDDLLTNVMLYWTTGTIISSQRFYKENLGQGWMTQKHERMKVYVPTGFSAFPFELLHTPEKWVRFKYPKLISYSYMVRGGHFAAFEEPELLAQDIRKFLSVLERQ
UniProt P15104, whole entry: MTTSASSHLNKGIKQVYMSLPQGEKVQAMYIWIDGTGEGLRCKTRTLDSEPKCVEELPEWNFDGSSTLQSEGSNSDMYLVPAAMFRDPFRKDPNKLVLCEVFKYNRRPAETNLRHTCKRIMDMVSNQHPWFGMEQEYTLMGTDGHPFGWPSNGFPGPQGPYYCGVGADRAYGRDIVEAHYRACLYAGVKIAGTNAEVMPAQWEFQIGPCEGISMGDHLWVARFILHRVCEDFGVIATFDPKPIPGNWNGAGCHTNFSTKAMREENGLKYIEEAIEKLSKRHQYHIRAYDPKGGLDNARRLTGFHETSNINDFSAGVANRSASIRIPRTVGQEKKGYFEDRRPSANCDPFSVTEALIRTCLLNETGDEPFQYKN

What follows are targets tested with Nc1ncnc2c1ncn2[C@@H]1O[C@H](COP(=O)(O)OP(=O)(O)NP(=O)(O)O)[C@@H](O)[C@H]1O [adenylyl imidodiphosphate] (assay: NP40-soluble protein abundance relative to vehicle (solubility fold change) (ratio); higher = more soluble protein in presence of AMP-PNP). Conditions: concentration: 0.1mM.
In short: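 Across three independent experiments, values are fold changes against the detergent-processed vehicle for each replicate, based on vsn-normalised intensities. The samples were Jurkat crude lysate treated with eight concentrations (0.1 to 10 mM) for 10 min at room temperature and then 3 min at 37 °C. Lysate was solubilised with 0.8% NP40 and benzonase, ultracentrifuged, and the supernatant analysed by TMT-labelled LC-MS/MS.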
Work on SSB (UniProt P05455) yielded an NP40-soluble protein abundance of 0.995 ± 0.027. COX4I1 (UniProt P13073) showed an NP40-soluble protein abundance of 1.01 ± 0.014. With UniProt O96019 and related entries the NP40-soluble protein abundance was 0.996 ± 0.045. In the case of UMPS (UniProt P11172), the NP40-soluble protein abundance is reported as 1.02 ± 0.016. Target UniProt P08236 and related entries has an NP40-soluble protein abundance of 1.02 ± 0.016. Target CYBA (UniProt P13498) has an NP40-soluble protein abundance of 1.01 ± 0.04. UQCRB (UniProt P14927) was tested, and the NP40-soluble protein abundance was 0.98 ± 0.07. UniProt P00338-2|P00338-3 gave an NP40-soluble protein abundance of 0.982 ± 0.12. UniProt O95983 and related entries gave an NP40-soluble protein abundance of 1.01 ± 0.022.

Same assay, conditions: concentration: 0.5mM
Work on HIST1H1E (UniProt P10412) yielded an NP40-soluble protein abundance of 1.06 ± 0.12. In the case of Fyn (UniProt P06241), the NP40-soluble protein abundance is reported as 0.999 ± 0.1. For GLA (UniProt P06280), the NP40-soluble protein abundance was 1.01 ± 0.048. UniProt P00387 and related entries showed an NP40-soluble protein abundance of 0.991 ± 0.094. In the case of UniProt P16298 and related entries, the NP40-soluble protein abundance is reported as 0.974 ± 0.032. PRKAR1A (UniProt P10644) was tested, and the NP40-soluble protein abundance was 1.01 ± 0.029. IGF2R (UniProt P11717) showed an NP40-soluble protein abundance of 1.02 ± 0.061. In the case of UniProt P13051 and related entries, the NP40-soluble protein abundance is reported as 1.01 ± 0.052. For UniProt P10747 and related entries, the NP40-soluble protein abundance was 1.01 ± 0.034. With ANXA5 (UniProt P08758) the NP40-soluble protein abundance was 1.01 ± 0.034. ETFA (UniProt P13804) gave an NP40-soluble protein abundance of 1.01 ± 0.025. Target UniProt P04234 has an NP40-soluble protein abundance of 1 ± 0.027. UniProt P09471-2 gave an NP40-soluble protein abundance of 0.9327 ± 0.0014. For UniProt P06239 and related entries, the NP40-soluble protein abundance was 1.04 ± 0.011. Work on UniProt P04083 and related entries yielded an NP40-soluble protein abundance of 0.982 ± 0.082. Target LCP1 (UniProt P13796) has an NP40-soluble protein abundance of 0.945 ± 0.11. EPHX1 (UniProt P07099) gave an NP40-soluble protein abundance of 0.996 ± 0.068. GLUL (UniProt P15104) was tested, and the NP40-soluble protein abundance was 0.981 ± 0.05.
